Test results as given in patent US10849989B2, “Isolated composite drug and carrier nanoparticles” (University of Limerick, priority 2016, dated 2020).
For at least one compound, name, drawing or mass did not settle the structure.

Assays:
Type in all cases: physicochemical
[1] = Zeta potential determination (electrophoretic light scattering, Malvern Zetasizer Nano ZSP); conditions: particles without surface treatment agent, suspension in water, 25° C.
Method: Zeta potential can be determined from electrophoretic mobility using the Smoluchowski calculation. The electrophoretic mobility value can be determined at 25° C. by electrophoretic light scattering (ELS), e.g. using a Malvern Zetasizer Nano ZSP system. Such commercially available ELS instrumentation will directly provide zeta potential values. Aqueous suspensions are filled into a folded capillary cell and equilibrated at 25° C. for 120 seconds before measurement. Three measurements are taken per run and each sample is run twice. The average value and the variation between measurements can be reported.
Unless otherwise stated, reference to zeta potential is a reference to the zeta potential of a suspension of the particles in water at neutral pH (pH 7) at standard ambient temperature and pressure (SATP, 25° C. and 100 kPa).
Zetapotential measurements were conducted on a Malvern Zetasizer Nano ZSP system. Zetapotential was determined from the electrophoretic mobility using the Smoluchowski approximation. The samples (without dilution) were filled into a folded capillary cell and equilibrated at 25° C. for 120 s before measurement. Three measurements were taken per run and each sample was run twice. The average value and the variation between measurements were reported.

[2] = Particle size analysis by laser diffraction (Malvern Mastersizer 3000); conditions: water as dispersion medium
Method: Particle size can be determined by laser diffraction, for example using a Malvern Mastersizer 3000.
Particle size measurements were performed by laser diffraction using a Malvern Mastersizer 3000, with water as the dispersion medium. In cases where the particle size was not stable, HPMC and SDS were added to the water dispersant at a concentration of 0.038 mg/mL each to minimise variation between consecutive measurements. Precipitated drug suspensions were diluted by a factor of 5 with water prior to their introduction to the measurement vessel. An MMT control was treated by the conditions used during antisolvent precipitation before measuring its particles size. An obscuration rate of 7-10%, a stir rate of 2300 rpm, a 1 min pre-measurement delay (including 20 sec with 5% sonication power) were the conditions used during all size measurements. A refractive index of 1.55 and an absorption index of 0.01 were used for FF measurements. A refractive index of 1.55 and an absorption index of 0.1 were used for MMT measurements. Four measurements were taken per run and each sample was run twice. The D50 was reported for each size distribution and averaged across all measurements. Measurement variations were also reported.

[3] = Centrifugation test of nanoparticle adsorption to carrier (% sedimented); conditions: 5000 rpm for 2 min, aged 0.5 min
Dissolution testing = conditions: precipitated in water, no stabilising additives, held in suspension
[4] = Drug loading of nanoparticles on carrier; conditions: on the PA-MMT carrier (4.6 mg PA/g MMT)
Source text: The drug loading in % w/w is the amount of drug in grams per 100 g of functionalised carrier particles. A high drug loading is beneficial for delivering a sufficient dose to a patient. In embodiments the composite has a drug loading of at least 2, 4, 6, 8, 9, 10, 15, 20, 30, 40 or 50% w/w. In embodiments the composite has a drug loading of no more than 100, 90, 80 or 70% w/w.
The drug loading (% w/w) can also be determined by dissolution testing whereby a known mass of dry drug loaded carrier particles is dissolved in a known volume of dissolution media. […] The concentration of drug in the dissolution media is measured by UV/Vis and/or HPLC spectroscopic methods until it stops increasing with time. The mass of drug present on the known mass of drug loaded carrier particles can thus be estimated and the drug loading in (% w/w) can be calculated.
Nanoparticles of both fenofibrate (FF) and mefenamic acid (MEF) were generated by antisolvent precipitation. An organic solution of FF in ethanol (1 mL, 50 mg/mL) was quickly introduced by Eppendorf pipet to 10 mL antisolvent containing (a) water, (b) an MMT suspension in water (50 mg/mL, equilibrated for >2 hrs) or (c) a protamine-modified MMT suspension in water (50 mg/mL, 4.6-189.9 mg PA/g MMT, equilibrated for >2 hrs). Solutions/suspensions were maintained at 25° C. under rapid agitation (800 rpm) throughout the precipitation process. […]

Structure (SMILES): CC(C)OC(=O)C(C)(C)Oc1ccc(C(=O)c2ccc(Cl)cc2)cc1 [fenofibrate]
- zeta potential [1]: −25.3 mV
- particle size D50 [2]: 0.75±0.09 μm
- sedimentation during centrifugation [3]: 30%
- dissolution rates versus aging time (Dissolution testing): decreased with aging time
- drug loading [4]: 9.1%
